PubChem BioAssay AID652272, Drosophila RNAi Screening Center – 2013
In all, the deposit lists about 21,000 reagents; below is a random part of those that have a named target and a result. Over the whole deposit, 503 (2.4%) got an active call. 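Raw plate light values, not normalised; calls rest on replicate z-scores that were not deposited; hits include reporter decreases as well as increases.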 The numbers tell different reagents against one gene apart. A plus sign joins genes that one reagent is predicted to hit. Not stated in the record: the amount of reagent, the time to read-out.

Assay: 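Genome-wide knock-down search for components of Hedgehog signalling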 (primary screen)
Cell system: Drosophila clone 8 (Cl8) cells
Knock-down reagent: long dsRNA against Drosophila genes
Detection: 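Plate reader light from a firefly reporter under a ptc promoter fragment that responds to Hedgehog, with Renilla light as transfection reference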
Scale: firefly Hh reporter signal: higher = more ptc reporter light; Renilla reference signal: higher = more Renilla control light
Active means: 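Called a hit if the two-replicate mean z-score lies below -2 or above +3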
Calls: active = hit: reporter lowered or raised; inactive = not a hit

Target gene	reagent	firefly Hh reporter signal, replicate 1	firefly Hh reporter signal, replicate 2	firefly Hh reporter signal, replicate 3	Renilla reference signal, replicate 1	Renilla reference signal, replicate 2	outcome
Ntf-2r	1	71238	33752		1672	2023	inactive
CG11257	1	79788	66583		2215	4647	inactive
CG42335	1	8.56e5	1.65e5		40261	2656	inactive
CG42335	2	8.54e5	1.70e5		36643	3357	inactive
CG40498	1	1.11e5	3.07e5		2936	11909	inactive
CG12003	1	1.42e5	57890		4873	4411	inactive
CG10063	1	88832	63035		8649	5780	inactive
CG43174 (retired record) + CG43173 (retired record)	1	2.10e5			4428		inactive
Mat89Ba	1	91986	79809		4917	3442	inactive
CG18528	1	5.81e5	1.09e5		30994	3399	inactive
Tsp5D	1	92989	2.33e5		2498	9611	inactive
CG4455	1	53884	50662		2482	1970	inactive
CG4017	1	50212	44779		1482	3952	inactive
H	1	5.53e5	67415		31668	2025	inactive
CG6180	1	86533	73879		3508	2875	inactive
CG4408	1	99521	92224		3925	3868	inactive
CG8159	1	74867	1.05e5		2760	5469	inactive
CG9737	1	94022	1.24e5		2850	3489	inactive
CG13040	1	1.42e5			7475	4277	inactive
PAN2	1	99184	69003		4820	3040	inactive
CG33792	1	1.72e5	1.97e5		5168	11116	inactive
Pph13	1	1.01e5	64385		3930	2400	inactive
CG31805	1	67763	3.29e5		2033	14112	inactive
Gr63a	1	59049	51802		1971	3670	inactive
Kaz1-ORFB	1	67621	49233		2130	3270	inactive
Wnt5	1	68658	2.21e5		2361	8720	inactive
Cul5	1	1.20e5	97618		4657	2512	inactive
MED22	1	53880	1.65e5		2053	7200	inactive
CG12898	1	71395	47596		1205	4649	inactive
Fur1	1	50041	2.41e5		12104	5700	inactive
Fur1	2	74841	1.15e5		1136	2939	inactive
CG15370	1	87706	50578		5104	1660	inactive
CG4293	1	1.01e5	86016		2656	2874	inactive
CG12645	1	72016	1.97e5		1688	6880	inactive
Crys	1	1.03e5	62378		3949	2725	inactive
IM33	1	1.48e5	57529		3472	5862	inactive
PIG-O	1	1.47e5	1.19e5		6343	4961	inactive
CG3009	1	1.26e5	83014		2651	1779	inactive
Srr	1	97464	1.54e5		2416	4281	inactive
CG12362	1	64566	51186	93916	4769	6004	inactive
Mpc1	1	1.14e5	90104		3553	3253	inactive
gcm	1	1.17e5	82250		3052	6059	inactive
CG3534	1	69968	98672		1114	2933	inactive
CG16727	1	8.44e5	1.62e5		45017	4970	inactive
stj	1	93302	79693		4752	3586	inactive
CG32483	1	90480	1.99e5		2598	6854	inactive
geminin	1	42762	24211		1340	2717	inactive
CAH1 + Adat1	1	59555	53794		2513	2523	inactive
CG44433	1	1.62e5	97089		4738	7046	inactive
CG44433	2	1.15e5	50325		2952	3368	inactive
CG15142	1	1.15e5	46343		3577	4576	inactive
CG12106	1	88384	72598		2165	1761	inactive
MetRS-m	1	86951	67975		3576	2729	inactive
MetRS-m	2	50967	91876		792	2013	inactive
Sry-beta	1	71335	57110		1117	954	active
CG14132	1	68865	45719	74325	4833	5788	inactive
Sf3a1	1	51527	41638		3409	3254	active
CG4313	1	90682	67132		2323	2358	inactive
Lime	1	1.47e5	69661		3861	624	inactive
CG14245	1	76325	1.00e5		2193	3376	inactive
GNBP1	1	2.26e5			7154	6245	inactive
Syx17	1	1.92e5	1.01e5		7440	4204	inactive
CG13725	1	4.71e5	62656		2744	2744	inactive
CG5346	1	4.30e5	1.65e5		24914	487	inactive
CG31287	1	57925	1.77e5		12774	3703	inactive
CG43260 (retired record)	1	7.40e5	2.31e5		41922	5521	inactive
Pof	1	1.03e5	55714		3735	2121	inactive
CG10516	1	1.81e5			2164	4685	inactive
CG31076	1	88312	1.04e5		3307	3328	inactive
CG43075	1	7.52e5	2.67e5		43111	5147	inactive
Psi	1	1.07e5	77322		2730	5766	inactive
CG5180	1	6.72e5	1.01e5		31424	2515	inactive
CG14153	1	48192	83520	85626	6595	6368	inactive
